Results deposited as PubChem BioAssay AID652243 (Drosophila RNAi Screening Center, 2013).
The deposit covers about 24,000 reagents; shown is an unselected part of those with a known target gene and a result. In the full data, 246 (1%) were called active. 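Plates not normalised; calls are printed but the firefly/Renilla ratio behind them is not deposited; fold cut for lowering reported inconsistently.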 Raw values vary from plate to plate and are shown uncorrected. Entries without a mark were called inactive. Names joined by + are all predicted targets of the reagent. Not given: the amount of reagent.

Assay: 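Knock-downs that decrease or increase androgen receptor reporter signal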 (primary screen)
System: Drosophila S2R+ cells
Knock-down reagent: long dsRNA against Drosophila genes
Timing: 72 h (48 h, then 24 h hormone)
Challenge: synthetic androgen R1881 at 10 nM for 24 h
Read-out: 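Firefly light from an androgen-responsive reporter and Renilla control light per well, raw and unnormalised, for each of two replicates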
Reading the numbers: firefly reporter light: higher = more light from androgen-responsive reporter; Renilla control light: higher = more constitutive control signal (cell number, transfection)
Call rule: 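Across duplicate plates, a knock-down whose log firefly/Renilla ratio shifted a set fold down or up from the GFP/LacZ control mean was a hit; the downward cut appears as both 1.5 and 3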
Calls: active = hit: reporter lowered or raised; inactive = no hit

gene	amplicon	firefly reporter light, replicate 1	firefly reporter light, replicate 2	Renilla control light, replicate 1	Renilla control light, replicate 2
Eig71Ei	DRSC11156	3.20e5	1.97e5	2.92e6	2.55e6
Eig71Ei	DRSC29123	1.02e6	1.09e6	1.82e6	1.36e6
Cpr5C (Cuticular protein 5C)	DRSC18340	3.71e5	3.43e5	2.60e6	2.46e6
Cpr92A (Cuticular protein 92A)	DRSC16000	2.02e5	1.98e5	2.79e6	2.89e6
Cpr92A (Cuticular protein 92A)	DRSC25340	8.17e5	8.92e5	9.61e5	1.15e6
Mdr65 (Multi drug resistance 65)	DRSC11220	5.97e5	5.20e5	3.87e6	3.80e6
CG17883	DRSC07838	1.55e5	1.02e5	1.31e6	1.40e6
Spt7	DRSC19997	91553	66186	7.06e5	6.79e5
Spt7	DRSC24902	1.16e6	1.12e6	9.81e5	9.55e5
Klp61F (Kinesin-like protein at 61F)	DRSC08671	46578	55857	3.90e5	3.76e5
Klp61F (Kinesin-like protein at 61F)	DRSC28179	3.06e5	3.34e5	9.03e5	7.89e5
CG31415	DRSC22409	3.44e5	8.09e5	1.48e6	1.78e6
Cyp6t1 (Cytochrome P450 6t1)	DRSC20564	3.85e5	3.54e5	1.06e6	8.99e5
Cyp6t1 (Cytochrome P450 6t1)	DRSC24235	5.43e5	4.83e5	4.11e5	4.05e5
List (Lithium-inducible SLC6 transporter)	DRSC06520	90916	97303	1.00e6	1.02e6
ArfGAP1 (ADP-ribosylation factor GTPase activating protein 1)	DRSC11173	1.47e5	92939	1.24e6	9.56e5
SmydA-3 (SET and MYND domain containing, arthropod-specific, member 3)	DRSC02565	1.68e5	1.58e5	9.59e5	1.29e6
SmydA-3 (SET and MYND domain containing, arthropod-specific, member 3)	DRSC02566	1.35e5	95132	1.26e6	9.43e5
SmydA-3 (SET and MYND domain containing, arthropod-specific, member 3)	DRSC30095	8.70e5	8.34e5	1.04e6	8.81e5
Syt4 (Synaptotagmin 4)	DRSC12606	47621	71244	1.40e6	1.22e6
Obp47a (Odorant-binding protein 47a)	DRSC06255	2.58e5	2.40e5	1.19e6	1.45e6
Obp47a (Odorant-binding protein 47a)	DRSC26247	2.56e5	2.37e5	5.81e5	5.77e5
Mst57Db (Male-specific RNA 57Db)	DRSC21551	7.92e5	7.67e5	2.12e6	1.67e6
sona (sol narae)	DRSC04089	3.03e5	3.19e5	1.55e6	1.32e6
sona (sol narae)	DRSC04574	41295	67013	8.26e5	8.82e5
sona (sol narae)	DRSC04575	1.65e5	2.90e5	1.52e6	1.79e6
SoYb	DRSC02901	1.75e5	2.10e5	8.91e5	1.15e6
CG32409	DRSC08780	2.65e5	3.78e5	2.75e6	2.31e6
CG32409	DRSC25913	4.27e5	3.61e5	5.99e5	5.24e5
Pif2 (PFTAIRE-interacting factor 2)	DRSC12525	96828	1.06e5	1.66e6	1.70e6
Pif2 (PFTAIRE-interacting factor 2)	DRSC26251	2.52e5	2.47e5	7.41e5	8.34e5
CHOp24	DRSC18310	80780	90266	9.03e5	7.22e5
trp (transient receptor potential)	DRSC17088	3.25e5	4.62e5	1.71e6	2.69e6
Ir8a (Ionotropic receptor 8a)	DRSC17817	1.40e5	2.33e5	2.07e6	2.49e6
Ir8a (Ionotropic receptor 8a)	DRSC17869	3.30e5	5.28e5	1.79e6	2.62e6
COX6CL (Cytochrome c oxidase subunit 6C-like)	DRSC00895	2.62e5	1.54e5	5.88e5	6.49e5
Mon1 (Monensin sensitivity 1)	DRSC00336	62024	51249	3.75e5	4.66e5
Mon1 (Monensin sensitivity 1)	DRSC26726	2.51e5	2.37e5	7.09e5	6.52e5
CG6271	DRSC16006	1.10e5	90161	6.63e5	6.27e5
CG6271	DRSC25865	3.26e5	4.11e5	9.35e5	5.57e5
CG15005	DRSC08459	1.80e5	2.30e5	2.36e6	3.68e6
CG15005	DRSC26556	4.89e5	4.05e5	5.91e5	7.76e5
dock (dreadlocks)	DRSC00812	6.32e5	7.40e5	1.47e6	1.19e6
dock (dreadlocks)	DRSC27610	3.29e5	2.34e5	2.94e5	6.00e5
Rbfox1 (RNA-binding Fox protein 1)	DRSC09034	4.11e5	4.92e5	2.69e6	2.48e6
Rbfox1 (RNA-binding Fox protein 1)	DRSC21378	1.15e6	1.10e6	2.06e6	2.08e6
Rbfox1 (RNA-binding Fox protein 1)	DRSC22992	7.78e5	8.75e5	1.69e6	2.12e6
Rbfox1 (RNA-binding Fox protein 1)	DRSC25775	6.39e5	6.07e5	8.44e5	5.98e5
Osi24 (Osiris 24)	DRSC12275	96190	88627	2.14e6	2.20e6
Spg7 (Paraplegin)	DRSC18469	3.39e5	2.26e5	4.49e6	3.57e6
CG17803	DRSC15275	4.36e5	4.48e5	3.19e6	2.56e6
CG17803	DRSC22811	4.55e5	1.08e6	1.20e6	2.16e6
vih (vihar)	DRSC09778	2.18e5	1.85e5	1.53e6	1.38e6
vih (vihar)	DRSC23625	2.41e5	2.23e5	8.61e5	3.99e5
CG4286	DRSC04459	1.94e5	3.88e5	5.85e5	6.68e5
CG4286	DRSC24458	8.06e5	6.88e5	1.01e6	9.01e5
Hsp70Aa + Hsp70Bb + Hsp70Ba + 3 more	DRSC15380	1.15e5	1.13e5	2.11e6	1.86e6
dmpd (dampened)	DRSC06092	1.16e6	4.23e5	2.03e6	9.48e5

9 entries already listed, sorted by “Renilla control light, replicate 2”, high to low:
gene	amplicon	firefly reporter light, replicate 1	firefly reporter light, replicate 2	Renilla control light, replicate 1	Renilla control light, replicate 2
CG15005	DRSC08459	1.80e5	2.30e5	2.36e6	3.68e6
Ir8a (Ionotropic receptor 8a)	DRSC17869	3.30e5	5.28e5	1.79e6	2.62e6
Ir8a (Ionotropic receptor 8a)	DRSC17817	1.40e5	2.33e5	2.07e6	2.49e6
CG15005	DRSC26556	4.89e5	4.05e5	5.91e5	7.76e5
Mon1 (Monensin sensitivity 1)	DRSC26726	2.51e5	2.37e5	7.09e5	6.52e5
COX6CL (Cytochrome c oxidase subunit 6C-like)	DRSC00895	2.62e5	1.54e5	5.88e5	6.49e5
CG6271	DRSC16006	1.10e5	90161	6.63e5	6.27e5
CG6271	DRSC25865	3.26e5	4.11e5	9.35e5	5.57e5
Mon1 (Monensin sensitivity 1)	DRSC00336	62024	51249	3.75e5	4.66e5
